The list shows a part of the results, in another mix than the full data. At the low end of the ranking the order means little.

The target in the assay is T1, FEV (UniProt Q99581).
T1 sequence: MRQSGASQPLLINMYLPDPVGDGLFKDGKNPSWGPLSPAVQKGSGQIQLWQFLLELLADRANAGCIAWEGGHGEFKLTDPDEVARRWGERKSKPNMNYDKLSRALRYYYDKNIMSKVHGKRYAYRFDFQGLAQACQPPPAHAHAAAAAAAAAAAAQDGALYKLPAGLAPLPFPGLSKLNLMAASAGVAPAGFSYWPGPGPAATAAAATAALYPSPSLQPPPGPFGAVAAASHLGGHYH
Nature of the assay: DAPPL (digital affinity profiling via proximity ligation, sequencing). The note with it: 10 mM Tris-HCl pH 7.5, 50 mM NaCl, 1 mM DTT, 4% glycerol, room temperature, 30 min; GST-TFs on glutathione beads, 16-mer random dsDNA library, 0.1% …; high values mean tight binding; double strand, one strand shown; scale: fold enrichment (6-mer frequency, TF over GST control).
Turning to AAATCC, the binding signal worked out at 2.56.

Turning to TACGAA, the binding signal was 1.29.

The sequence ATACTA returned a binding signal of 1.13.

The sequence TATCTC showed a binding signal of 1.27.

In the case of ACCGAT, the binding signal is 1.06.

Consider TACGCT, for which the binding signal came out at 1.32.

CTTGCA: the binding signal was 1.3.

Consider GTAAAA, for which the binding signal stood at 1.07.

With CTCCTT, the binding signal is 1.75.

For TTTCCT, the binding signal stood at 2.34.

Regarding ACCTGC, the binding signal came to 1.5.

GGCTCC: the binding signal is 1.35.

Sequence TTCATA gave a binding signal of 1.12.

The sequence TCCTAT returned a binding signal of 1.41.

As for ATCGCC, the binding signal was 1.24.

Sequence AATGAT yielded a binding signal of 1.18.

Turning to TCCGAC, the binding signal turned out to be 1.68.

ATCTCT: the binding signal amounted to 1.29.

ATCTAG showed a binding signal of 1.04.

TTACCG had a binding signal of 1.26.

Take TATTTC: the binding signal came to 2.32.

Consider TTGTAC, for which the binding signal is 1.52.

For the sequence ATAGCT, the binding signal amounted to 1.16.

Regarding TAACAT, the binding signal was determined as 1.32.

As for ACTGCT, the binding signal came out at 1.48.

In turn, TAATGT had a binding signal of 0.998.

TCACGA: the binding signal turned out to be 1.05.

In turn, TGCTTC showed a binding signal of 2.29.

TATTAT displayed a binding signal of 1.12.

For CGATCC, the binding signal is 1.2.

Regarding AATCCC, the binding signal is 1.41.

On to TATGCG, for which the binding signal was 1.26.

For AAAACA, the binding signal turned out to be 1.34.

In turn, AAAAGG yielded a binding signal of 1.06.

As for ATACGT, the binding signal was found to be 1.11.

Turning to TAAAAT, the binding signal amounted to 1.14.

In turn, ATTACG came in with a binding signal of 1.16.

CCTATG showed a binding signal of 1.17.

For the sequence CACTTC, the binding signal was 5.06.

The values above are taken from article PMC7862700.
